Test results as given in the supplement of paper PMC12819154, “High-throughput peptide-centric local stability assay extends protein–ligand identification to membrane proteins, tissues and bacteria” (Nature Structural & Molecular Biology, 2025).
The list shows a part of the results. Small differences around the control level are noise.

Amino acid sequences for entries named in this document (tags omitted). A change or cut given only in a name is not applied to a line headed by its entry.
UniProt Q9Y3T6: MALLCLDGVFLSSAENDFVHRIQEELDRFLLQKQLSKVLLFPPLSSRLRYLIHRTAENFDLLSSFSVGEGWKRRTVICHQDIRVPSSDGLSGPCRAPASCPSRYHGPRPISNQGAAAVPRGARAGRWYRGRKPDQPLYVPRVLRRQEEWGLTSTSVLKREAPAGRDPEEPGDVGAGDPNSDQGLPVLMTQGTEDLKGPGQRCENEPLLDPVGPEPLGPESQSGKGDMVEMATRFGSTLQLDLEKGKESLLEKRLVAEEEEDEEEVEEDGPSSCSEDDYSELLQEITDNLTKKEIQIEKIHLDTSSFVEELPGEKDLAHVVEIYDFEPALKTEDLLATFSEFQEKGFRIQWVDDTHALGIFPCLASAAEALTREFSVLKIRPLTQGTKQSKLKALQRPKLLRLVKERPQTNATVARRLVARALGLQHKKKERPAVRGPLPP
UniProt Q9Y3D0: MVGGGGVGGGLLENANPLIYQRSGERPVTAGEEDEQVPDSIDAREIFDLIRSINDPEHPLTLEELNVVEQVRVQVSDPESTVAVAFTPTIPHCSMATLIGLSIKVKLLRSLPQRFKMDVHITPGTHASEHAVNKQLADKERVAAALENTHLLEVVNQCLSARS
UniProt Q9Y3C0: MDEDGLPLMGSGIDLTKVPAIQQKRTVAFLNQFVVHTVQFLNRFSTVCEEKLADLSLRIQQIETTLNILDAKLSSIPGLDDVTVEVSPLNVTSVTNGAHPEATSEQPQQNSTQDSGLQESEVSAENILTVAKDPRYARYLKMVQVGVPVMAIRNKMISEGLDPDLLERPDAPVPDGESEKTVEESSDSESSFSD
UniProt Q9Y617: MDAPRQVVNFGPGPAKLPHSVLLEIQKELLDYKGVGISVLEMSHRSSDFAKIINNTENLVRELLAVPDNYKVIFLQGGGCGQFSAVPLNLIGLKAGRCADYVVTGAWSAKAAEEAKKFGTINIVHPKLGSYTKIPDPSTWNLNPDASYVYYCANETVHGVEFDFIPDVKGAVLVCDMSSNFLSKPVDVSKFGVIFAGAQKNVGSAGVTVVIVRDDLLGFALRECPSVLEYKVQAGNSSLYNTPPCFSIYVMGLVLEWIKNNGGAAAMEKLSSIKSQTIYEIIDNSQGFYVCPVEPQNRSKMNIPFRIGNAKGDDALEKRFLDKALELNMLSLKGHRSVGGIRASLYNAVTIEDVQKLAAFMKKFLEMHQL
UniProt Q9Y320, whole entry: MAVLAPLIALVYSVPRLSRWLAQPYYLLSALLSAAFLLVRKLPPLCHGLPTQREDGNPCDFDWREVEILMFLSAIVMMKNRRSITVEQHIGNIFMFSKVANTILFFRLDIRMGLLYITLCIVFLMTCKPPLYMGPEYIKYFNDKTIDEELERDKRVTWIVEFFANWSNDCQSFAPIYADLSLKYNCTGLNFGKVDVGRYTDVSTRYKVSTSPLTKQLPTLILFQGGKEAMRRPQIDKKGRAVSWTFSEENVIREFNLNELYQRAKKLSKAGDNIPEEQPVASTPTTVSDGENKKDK
UniProt Q9Y6H1: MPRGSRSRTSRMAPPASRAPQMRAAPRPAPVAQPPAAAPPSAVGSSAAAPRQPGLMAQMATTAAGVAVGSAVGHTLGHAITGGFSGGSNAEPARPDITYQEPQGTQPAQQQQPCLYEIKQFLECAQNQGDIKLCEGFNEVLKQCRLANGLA
UniProt Q9Y3B4: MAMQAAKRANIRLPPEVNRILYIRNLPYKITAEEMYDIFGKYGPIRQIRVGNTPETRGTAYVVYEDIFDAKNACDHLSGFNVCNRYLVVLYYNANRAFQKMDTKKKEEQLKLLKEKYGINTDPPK
UniProt Q9Y2Q5, whole entry: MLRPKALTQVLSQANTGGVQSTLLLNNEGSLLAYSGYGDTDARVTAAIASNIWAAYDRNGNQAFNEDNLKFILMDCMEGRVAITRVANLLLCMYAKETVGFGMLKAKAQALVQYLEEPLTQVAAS
UniProt Q9Y303: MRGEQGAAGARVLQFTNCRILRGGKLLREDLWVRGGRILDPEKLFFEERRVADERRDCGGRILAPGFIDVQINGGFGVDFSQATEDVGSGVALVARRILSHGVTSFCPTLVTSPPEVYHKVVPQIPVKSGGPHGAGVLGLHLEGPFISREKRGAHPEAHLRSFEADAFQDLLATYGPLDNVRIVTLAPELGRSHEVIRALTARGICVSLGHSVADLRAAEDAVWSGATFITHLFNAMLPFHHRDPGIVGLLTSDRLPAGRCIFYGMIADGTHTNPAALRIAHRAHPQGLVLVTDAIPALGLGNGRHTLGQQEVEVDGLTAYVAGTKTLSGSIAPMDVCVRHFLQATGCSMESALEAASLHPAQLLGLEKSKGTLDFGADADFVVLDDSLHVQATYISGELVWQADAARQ
UniProt Q9Y3B6: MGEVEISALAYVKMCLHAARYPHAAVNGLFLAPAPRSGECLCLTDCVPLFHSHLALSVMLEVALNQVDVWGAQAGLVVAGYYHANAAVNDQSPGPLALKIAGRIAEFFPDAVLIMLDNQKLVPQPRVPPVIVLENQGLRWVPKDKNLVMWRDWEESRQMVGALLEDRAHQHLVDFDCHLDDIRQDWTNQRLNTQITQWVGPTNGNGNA
UniProt Q9Y5Y0: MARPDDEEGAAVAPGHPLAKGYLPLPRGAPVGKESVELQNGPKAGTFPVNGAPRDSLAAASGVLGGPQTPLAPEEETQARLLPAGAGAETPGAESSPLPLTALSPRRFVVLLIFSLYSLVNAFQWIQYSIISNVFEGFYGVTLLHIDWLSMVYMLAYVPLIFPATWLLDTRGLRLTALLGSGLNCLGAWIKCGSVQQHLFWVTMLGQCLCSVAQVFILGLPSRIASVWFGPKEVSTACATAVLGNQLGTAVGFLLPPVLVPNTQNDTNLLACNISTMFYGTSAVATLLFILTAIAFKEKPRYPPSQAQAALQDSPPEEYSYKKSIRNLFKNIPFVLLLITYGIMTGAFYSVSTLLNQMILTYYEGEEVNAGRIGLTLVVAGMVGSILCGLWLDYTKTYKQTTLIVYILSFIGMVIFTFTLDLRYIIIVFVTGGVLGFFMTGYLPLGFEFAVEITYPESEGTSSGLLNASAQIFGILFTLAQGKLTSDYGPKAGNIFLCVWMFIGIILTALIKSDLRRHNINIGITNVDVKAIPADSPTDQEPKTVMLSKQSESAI
UniProt Q9Y385: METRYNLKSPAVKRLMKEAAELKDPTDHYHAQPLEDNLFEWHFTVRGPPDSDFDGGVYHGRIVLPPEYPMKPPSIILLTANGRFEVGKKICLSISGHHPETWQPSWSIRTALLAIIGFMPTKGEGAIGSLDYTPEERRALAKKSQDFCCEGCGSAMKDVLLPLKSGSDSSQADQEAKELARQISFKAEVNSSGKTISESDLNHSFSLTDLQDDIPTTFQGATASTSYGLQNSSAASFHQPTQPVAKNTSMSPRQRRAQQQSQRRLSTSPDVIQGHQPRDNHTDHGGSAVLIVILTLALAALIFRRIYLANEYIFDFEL
UniProt Q9Y3Q8: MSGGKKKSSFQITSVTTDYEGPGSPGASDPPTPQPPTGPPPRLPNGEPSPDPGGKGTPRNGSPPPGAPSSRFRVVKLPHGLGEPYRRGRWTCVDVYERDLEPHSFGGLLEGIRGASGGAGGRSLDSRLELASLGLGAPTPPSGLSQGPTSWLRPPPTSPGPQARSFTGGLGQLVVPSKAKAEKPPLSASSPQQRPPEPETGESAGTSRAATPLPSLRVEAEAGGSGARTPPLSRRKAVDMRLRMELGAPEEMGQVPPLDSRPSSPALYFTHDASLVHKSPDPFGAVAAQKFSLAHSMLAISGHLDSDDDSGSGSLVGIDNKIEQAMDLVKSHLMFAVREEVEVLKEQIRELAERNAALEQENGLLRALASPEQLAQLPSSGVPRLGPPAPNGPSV
UniProt Q9Y285: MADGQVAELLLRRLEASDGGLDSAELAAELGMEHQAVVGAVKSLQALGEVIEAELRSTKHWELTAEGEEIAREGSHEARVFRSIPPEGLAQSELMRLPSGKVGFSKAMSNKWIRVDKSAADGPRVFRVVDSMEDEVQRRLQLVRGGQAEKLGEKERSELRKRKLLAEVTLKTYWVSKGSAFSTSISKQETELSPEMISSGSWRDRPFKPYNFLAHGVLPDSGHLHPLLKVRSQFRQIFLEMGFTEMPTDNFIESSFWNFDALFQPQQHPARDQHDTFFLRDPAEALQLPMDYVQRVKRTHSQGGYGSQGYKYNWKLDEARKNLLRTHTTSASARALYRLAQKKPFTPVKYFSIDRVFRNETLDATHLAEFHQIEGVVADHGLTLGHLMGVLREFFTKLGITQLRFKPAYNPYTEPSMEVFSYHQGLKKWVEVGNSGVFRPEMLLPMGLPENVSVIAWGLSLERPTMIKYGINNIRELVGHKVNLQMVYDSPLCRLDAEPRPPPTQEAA
UniProt Q9Y5B8, whole entry: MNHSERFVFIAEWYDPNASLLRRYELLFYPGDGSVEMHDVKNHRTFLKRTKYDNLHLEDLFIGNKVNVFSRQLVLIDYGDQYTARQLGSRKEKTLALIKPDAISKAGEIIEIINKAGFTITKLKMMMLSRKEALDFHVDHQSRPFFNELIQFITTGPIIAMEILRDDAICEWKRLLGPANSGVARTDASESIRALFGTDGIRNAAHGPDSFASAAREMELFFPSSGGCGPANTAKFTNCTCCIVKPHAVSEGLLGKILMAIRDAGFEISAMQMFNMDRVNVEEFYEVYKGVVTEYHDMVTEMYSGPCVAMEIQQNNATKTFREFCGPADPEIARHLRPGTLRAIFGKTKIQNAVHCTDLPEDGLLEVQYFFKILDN
UniProt Q9Y6M0: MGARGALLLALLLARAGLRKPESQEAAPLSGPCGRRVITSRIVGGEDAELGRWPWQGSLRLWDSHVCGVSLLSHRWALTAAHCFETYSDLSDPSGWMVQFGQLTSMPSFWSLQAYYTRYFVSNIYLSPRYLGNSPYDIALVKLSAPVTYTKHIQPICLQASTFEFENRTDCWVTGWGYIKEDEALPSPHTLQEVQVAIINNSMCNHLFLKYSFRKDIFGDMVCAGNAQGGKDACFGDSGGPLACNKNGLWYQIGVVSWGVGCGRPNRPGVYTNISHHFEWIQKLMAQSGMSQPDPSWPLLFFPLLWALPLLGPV
UniProt Q9Y697: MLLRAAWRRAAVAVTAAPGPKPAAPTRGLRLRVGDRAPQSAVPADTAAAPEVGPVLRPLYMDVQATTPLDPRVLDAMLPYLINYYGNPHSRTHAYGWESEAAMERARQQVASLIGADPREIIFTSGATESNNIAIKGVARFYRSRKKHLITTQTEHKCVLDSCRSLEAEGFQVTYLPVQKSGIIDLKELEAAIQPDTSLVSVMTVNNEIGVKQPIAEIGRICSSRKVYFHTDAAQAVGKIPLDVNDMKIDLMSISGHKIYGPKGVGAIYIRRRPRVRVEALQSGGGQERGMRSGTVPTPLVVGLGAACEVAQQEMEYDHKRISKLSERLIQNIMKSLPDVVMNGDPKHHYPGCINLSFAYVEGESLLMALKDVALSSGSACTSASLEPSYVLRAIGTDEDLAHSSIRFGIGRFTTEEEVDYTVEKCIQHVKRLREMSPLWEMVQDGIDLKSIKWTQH
UniProt Q9Y483: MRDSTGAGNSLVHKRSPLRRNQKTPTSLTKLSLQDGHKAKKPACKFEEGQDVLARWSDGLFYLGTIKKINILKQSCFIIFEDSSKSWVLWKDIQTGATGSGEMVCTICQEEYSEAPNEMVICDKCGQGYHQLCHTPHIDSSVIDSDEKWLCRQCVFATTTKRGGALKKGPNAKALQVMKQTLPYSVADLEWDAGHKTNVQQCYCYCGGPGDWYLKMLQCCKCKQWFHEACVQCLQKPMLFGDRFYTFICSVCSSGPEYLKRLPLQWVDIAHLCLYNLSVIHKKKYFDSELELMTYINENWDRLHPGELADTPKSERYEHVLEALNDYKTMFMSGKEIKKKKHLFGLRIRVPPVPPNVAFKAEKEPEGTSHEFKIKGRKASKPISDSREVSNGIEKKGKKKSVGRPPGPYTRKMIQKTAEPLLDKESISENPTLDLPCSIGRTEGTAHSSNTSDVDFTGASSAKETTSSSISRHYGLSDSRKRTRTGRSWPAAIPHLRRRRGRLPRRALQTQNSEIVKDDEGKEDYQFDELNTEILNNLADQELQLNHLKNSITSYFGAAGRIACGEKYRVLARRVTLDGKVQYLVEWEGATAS
UniProt Q9Y3X0: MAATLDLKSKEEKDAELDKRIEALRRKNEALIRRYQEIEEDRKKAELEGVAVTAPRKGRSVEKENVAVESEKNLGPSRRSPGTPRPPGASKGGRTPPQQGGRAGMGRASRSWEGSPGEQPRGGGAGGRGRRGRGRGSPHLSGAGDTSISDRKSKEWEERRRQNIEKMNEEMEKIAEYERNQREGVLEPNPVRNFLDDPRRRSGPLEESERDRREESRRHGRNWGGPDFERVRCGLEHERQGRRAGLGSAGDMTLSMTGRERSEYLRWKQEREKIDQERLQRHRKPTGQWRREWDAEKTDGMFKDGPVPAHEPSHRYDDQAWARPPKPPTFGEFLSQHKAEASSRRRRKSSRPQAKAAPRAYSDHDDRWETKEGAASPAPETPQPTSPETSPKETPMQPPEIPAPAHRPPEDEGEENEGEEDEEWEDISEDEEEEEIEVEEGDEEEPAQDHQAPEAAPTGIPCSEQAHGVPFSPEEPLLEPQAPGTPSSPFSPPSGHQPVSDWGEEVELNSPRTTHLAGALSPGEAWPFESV

Each target was assayed with Cc1nc(Nc2ncc(C(=O)Nc3c(C)cccc3Cl)s2)cc(N2CCN(CCO)CC2)n1 [dasatinib] (assay: log2 fold change of tryptic peptide abundance, ligand vs vehicle (limited proteolysis) (log2 ratio); higher = more trypsin-susceptible (destabilized)). Details: ligand concentration: 5 uM; sample: K562 cleared lysate.
“R3HCC1 (peptide sequence: VPSSDGLSGPCR, peptide start residue: 84) (UniProt Q9Y3T6)” gave a log2 fold change of -0.557.
In the case of “UniProt Q9Y3D0 (peptide sequence: EIFDLIR, peptide start residue: 45)”, the log2 fold change was -0.0407.
“UniProt Q9Y3C0 (peptide sequence: FSTVCEEK, peptide start residue: 44)” gave a log2 fold change of -0.117.
With “PSAT1 (peptide sequence: QVVNFGPGPAK, peptide start residue: 6) (UniProt Q9Y617)” the log2 fold change was 0.438.
Work on “UniProt Q9Y320 (peptide sequence: YNCTGLNFGKVDVGR, peptide start residue: 184)” yielded a log2 fold change of 0.758.
For “TRAPPC4 (peptide sequence: FVVLADPR, peptide start residue: 155) (UniProt Q9Y296)”, the log2 fold change was 0.29.
“CHCHD2 (peptide sequence: AAPRPAPVAQPPAAAPPSAVGSSAAAPR, peptide start residue: 24) (UniProt Q9Y6H1)” gave a log2 fold change of 0.177.
With “UniProt Q9Y3B4 (peptide sequence: KKEEQLK, peptide start residue: 105)” the log2 fold change was -0.125.
With “UniProt Q9Y2Q5 (peptide sequence: VANLLLCMYAK, peptide start residue: 86)” the log2 fold change was 0.0743.
Work on “AMDHD2 (peptide sequence: IVTLAPELGR, peptide start residue: 183) (UniProt Q9Y303)” yielded a log2 fold change of -0.161.
For “UniProt Q9Y3B6 (peptide sequence: YPHAAVNGLFLAPAPR, peptide start residue: 21)”, the log2 fold change was 0.404.
“FLVCR1 (peptide sequence: ARPDDEEGAAVAPGHPLAK, peptide start residue: 2) (UniProt Q9Y5Y0)” was tested, and the log2 fold change was -0.254.
“UBE2J1 (peptide sequence: RLSTSPDVIQGHQPR, peptide start residue: 264) (UniProt Q9Y385)” gave a log2 fold change of -0.3.
“RAD54B (peptide sequence: QGLCGAVVDLTK, peptide start residue: 786) (UniProt Q9Y620)” was tested, and the log2 fold change was 0.2.
In the case of “UniProt Q9Y2G7 (peptide sequence: SCGLEEQESPHEVCFR, peptide start residue: 111)”, the log2 fold change was 0.0602.
“TSC22D4 (peptide sequence: VVKLPHGLGEPYR, peptide start residue: 74) (UniProt Q9Y3Q8)” showed a log2 fold change of -0.908.
“AP3M1 (peptide sequence: VLTWDVGK, peptide start residue: 338) (UniProt Q9Y2T2)” was tested, and the log2 fold change was 0.703.
Work on “UniProt Q9Y3A3 (peptide sequence: HTLDGAACLLNSNKYFPSR, peptide start residue: 127)” yielded a log2 fold change of -0.419.
Target “FARSA (peptide sequence: KLLAEVTLK, peptide start residue: 163) (UniProt Q9Y285)” has a log2 fold change of 0.101.
In the case of “NME7 (peptide sequence: RYELLFYPGDGSVEMHDVK, peptide start residue: 23) (UniProt Q9Y5B8)”, the log2 fold change was 0.207.
“RNF114 (peptide sequence: LFHSTDTK, peptide start residue: 162) (UniProt Q9Y508)” showed a log2 fold change of 0.203.
“PRSS21 (peptide sequence: LWDSHVCGVSLLSHR, peptide start residue: 61) (UniProt Q9Y6M0)” showed a log2 fold change of -0.274.
With “DMXL1 (peptide sequence: GSEDFLVIHAR, peptide start residue: 2691) (UniProt Q9Y485)” the log2 fold change was -0.225.
Target “WNK2 (peptide sequence: GTFTDDLHK, peptide start residue: 2244) (UniProt Q9Y3S1)” has a log2 fold change of -0.115.
For “NFS1 (peptide sequence: VYFHTDAAQAVGK, peptide start residue: 227) (UniProt Q9Y697)”, the log2 fold change was -0.704.
Work on “KLHL20 (peptide sequence: NYLLLPQERPLMQGPR, peptide start residue: 292) (UniProt Q9Y2M5)” yielded a log2 fold change of 0.472.
“MTF2 (peptide sequence: KSVGRPPGPYTR, peptide start residue: 400) (UniProt Q9Y483)” was tested, and the log2 fold change was -0.37.
“CCDC9 (peptide sequence: EWDAEKTDGMFK, peptide start residue: 292) (UniProt Q9Y3X0)” was tested, and the log2 fold change was -0.134.
